Experimental data: PMC8639466
For some of these results: A negative result means that nothing was seen under these conditions. At least one verdict was read from the data and is not stated in words by the source. For some of these results: Construct, isoform or probe ends are uncertain for at least one entry. For some of these results: A weaker result is weaker than the reference pair of the same experiment. For some of these results: Tags and fusion partners may be left off the protein sequences shown.

Protein sequences, listed by entry. Tags and fused reporters are not part of them. Residues count along the entry.
UniProt Q08945, 520-616: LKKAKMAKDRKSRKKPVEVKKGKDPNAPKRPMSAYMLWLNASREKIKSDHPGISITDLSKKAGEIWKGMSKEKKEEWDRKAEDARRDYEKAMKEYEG
UniProt Q08945, 546-616: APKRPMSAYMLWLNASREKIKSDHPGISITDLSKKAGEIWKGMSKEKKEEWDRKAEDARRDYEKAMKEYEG

Tests used:
[1] = molecular target: hSSRP1-HMG520-616 (Homo sapiens) (UniProt Q08945); assay: SEC; conditions: dsDNA sequence not restated for SEC; single-molecule: 10 mM Tris, 20 mM EDTA, 25 mM KCl, 0.2 mg/l BSA, 10 mM MgCl2; recombinant protein; residues 520-616; protein details: GST or His-SUMO fusion vector, GST cleaved; label: 5'-FAM on strand 1
[2] = molecular target: hSSRP1-HMG546-616 (Homo sapiens) (UniProt Q08945); assay: SEC; conditions: dsDNA sequence not restated for SEC; single-molecule: 10 mM Tris, 20 mM EDTA, 25 mM KCl, 0.2 mg/l BSA, 10 mM MgCl2; recombinant protein; residues 546-616; protein details: GST or His-SUMO fusion vector, GST cleaved; label: 5'-FAM on strand 1
NHP6A1-93 = molecular target: T1, NHP6A1-93 (UniProt P11632); assay: EMSA; conditions: positive control; EMSA: 5 uM DNA, 137 mM NaCl, 2.7 mM KCl, 10 mM Na2HPO4, 2 mM KH2PO4 pH 7.4, 30 min on ice, 12% native PAGE; recombinant protein; residues …; protein details: pET28a; label: 5'-FAM on strand 1
T1 sequence (looked up): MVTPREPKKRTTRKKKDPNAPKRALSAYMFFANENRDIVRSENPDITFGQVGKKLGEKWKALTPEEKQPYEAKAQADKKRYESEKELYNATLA

NHP6A26-93 = molecular target: T2, NHP6A26-93 (UniProt P11632); assay: EMSA; conditions: N-terminal deletion affects binding; EMSA: 5 uM DNA, 137 mM NaCl, 2.7 mM KCl, 10 mM Na2HPO4, 2 mM KH2PO4 pH 7.4, 30 min on ice, 12% native PAGE; recombinant protein; residues 26-93; protein details: pET28a; label: 5'-FAM on strand 1
T2 sequence (looked up): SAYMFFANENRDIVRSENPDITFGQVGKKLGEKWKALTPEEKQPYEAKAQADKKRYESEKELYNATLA

Sequence: GGGGTGATTGTTCAG (double strand) [15 bp FAM GT-rich dsDNA]
- binding result [1]: binds
- binding result [2]: no binding
- binding result (NHP6A1-93): binds
- binding result (NHP6A26-93): binds more weakly
